Reference: article doi:10.1101/2024.08.06.606759
These are yes or no findings as the source states them, for the method shown. Binding seen in cells or lysates may run through a third protein. Some binding calls cover weakened binding; strength is not graded here. For part of these data: Where a sequence is shown, tags or fusion partners need not be part of it.

Chains of the proteins cited; added tags and fusions are not shown.
UniProt P11586: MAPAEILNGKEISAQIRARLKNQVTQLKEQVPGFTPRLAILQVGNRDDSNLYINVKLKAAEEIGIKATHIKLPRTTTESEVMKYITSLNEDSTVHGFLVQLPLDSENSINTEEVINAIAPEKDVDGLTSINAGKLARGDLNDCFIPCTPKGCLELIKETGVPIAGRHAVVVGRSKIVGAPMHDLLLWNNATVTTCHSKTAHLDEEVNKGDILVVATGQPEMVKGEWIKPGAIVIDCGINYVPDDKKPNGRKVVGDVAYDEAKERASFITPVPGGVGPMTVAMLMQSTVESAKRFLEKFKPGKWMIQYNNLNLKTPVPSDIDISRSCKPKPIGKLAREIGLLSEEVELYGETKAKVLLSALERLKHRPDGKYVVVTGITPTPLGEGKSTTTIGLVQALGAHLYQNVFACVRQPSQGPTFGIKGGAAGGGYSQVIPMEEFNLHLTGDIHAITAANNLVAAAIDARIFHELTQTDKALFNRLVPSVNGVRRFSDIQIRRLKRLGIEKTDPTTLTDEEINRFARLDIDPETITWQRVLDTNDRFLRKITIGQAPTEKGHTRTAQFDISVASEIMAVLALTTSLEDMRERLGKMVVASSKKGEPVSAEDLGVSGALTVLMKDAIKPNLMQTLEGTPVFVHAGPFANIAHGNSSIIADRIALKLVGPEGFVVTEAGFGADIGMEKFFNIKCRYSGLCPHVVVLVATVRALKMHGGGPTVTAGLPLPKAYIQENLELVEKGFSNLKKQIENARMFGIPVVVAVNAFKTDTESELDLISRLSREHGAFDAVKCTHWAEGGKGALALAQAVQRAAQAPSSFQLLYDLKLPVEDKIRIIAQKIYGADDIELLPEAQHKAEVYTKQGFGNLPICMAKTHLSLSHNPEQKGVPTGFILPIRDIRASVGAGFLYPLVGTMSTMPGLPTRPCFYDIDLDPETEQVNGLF

How the values were obtained:
GST-RIPK4 = biological target: T1, GST-RIPK4 (UniProt P57078); experiment: pull-down
T1 sequence: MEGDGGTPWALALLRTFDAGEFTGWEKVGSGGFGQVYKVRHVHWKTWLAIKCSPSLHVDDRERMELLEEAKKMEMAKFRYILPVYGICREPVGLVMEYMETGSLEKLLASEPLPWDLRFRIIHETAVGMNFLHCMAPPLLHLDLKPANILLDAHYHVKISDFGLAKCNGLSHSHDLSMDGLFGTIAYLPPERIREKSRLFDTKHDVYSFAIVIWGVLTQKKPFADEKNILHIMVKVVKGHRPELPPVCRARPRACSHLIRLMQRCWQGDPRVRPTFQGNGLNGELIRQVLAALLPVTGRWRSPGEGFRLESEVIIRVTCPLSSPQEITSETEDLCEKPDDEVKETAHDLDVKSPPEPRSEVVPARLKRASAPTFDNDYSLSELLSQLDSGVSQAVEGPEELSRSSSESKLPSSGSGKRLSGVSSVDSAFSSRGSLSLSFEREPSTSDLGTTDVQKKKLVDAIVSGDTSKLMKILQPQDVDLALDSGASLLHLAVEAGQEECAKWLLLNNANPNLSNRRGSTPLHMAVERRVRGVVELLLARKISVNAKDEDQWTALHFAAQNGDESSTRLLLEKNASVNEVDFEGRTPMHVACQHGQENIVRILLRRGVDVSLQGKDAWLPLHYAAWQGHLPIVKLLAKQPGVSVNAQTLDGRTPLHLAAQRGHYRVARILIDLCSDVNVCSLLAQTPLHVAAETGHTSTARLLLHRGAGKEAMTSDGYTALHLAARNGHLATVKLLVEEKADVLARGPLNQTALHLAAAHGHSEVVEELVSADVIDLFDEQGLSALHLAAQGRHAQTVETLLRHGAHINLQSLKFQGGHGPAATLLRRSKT

RIPK4 (endogenous) = biological target: T2, RIPK4 (endogenous) (UniProt P57078); experiment: co-IP
T2 sequence: T1 sequence

RIPK4-WT-FLAG = biological target: T3, RIPK4-WT-FLAG (UniProt P57078); experiment: co-IP
T3 sequence: T1 sequence

## His-MTHFD1 (from UniProt P11586 1-935) (enzyme)
GST-RIPK4
  binding: binds

## MTHFD1 (endogenous, cells of the co-ip not stated) (from UniProt P11586 1-935) (enzyme)
RIPK4 (endogenous)
  binding: binds

## MTHFD1-HA (from UniProt P11586 1-935) (enzyme)
RIPK4-WT-FLAG
  binding: binds
